Test results as given in publication PMC8589628, “Characterization and Antimicrobial Studies of Iturin-Like and Bogorol-Like Lipopeptides From Brevibacillus spp. Strains GI9 and SKDU10” (Frontiers in Microbiology, 2021).
Values after ≈ are worked out from the molar mass of the structure shown.

Tested on: C. albicans MTCC 183
Assay: MIC, microtiter plate dilution assay
Type: cell-based
Details: Candida albicans, MTCC183, YMB, 5 × 10^5 CFU/ml, 37°C, OD 600 nm after 48 h
Experimental: The antimicrobial activity of HPLC purified compounds was determined against various test strains including S. aureus MTCC 1430, Vibrio cholera MTCC 3904, Bacillus subtilis MTCC 121, Listeria monocytogenes MTCC 839, C. albicans MTCC 183, C. albicans MTCC 1637, C. albicans MTCC 227, C. tropicalis MTCC 184, C. glabrata MTCC 3019, and C. inconspicua MTCC 1074. Antimicrobial activity was also tested against clinical Candida strains and phytopathogenic fungi viz. Fusarium moniliforme MTCC 158, Alternaria brassicicola MTCC 2102 and Colletotrichum acutatum MTCC 1037. Bacterial and Candida test strains were grown in NB and yeast malt broth (YMB), respectively. Fungal test strains were grown in potato dextrose broth (PDB). Minimum inhibitory concentrations (MICs) of purified compounds were evaluated against test organisms by using a microtiter plate dilution assay. Mid-log-phase test strains (5 × 10^5 CFU/ml) were incubated in a 96-well plate with different concentrations of the lipopeptides for 24–48 h at 37°C (final volume of 200 μl). OD was measured at 600 nm after 24 and 48 h for bacteria and yeast, respectively, using an ELISA microplate reader (Thermo Scientific, United States). MIC against phytopathogenic fungi was determined using the 96-well microtiter plate method ([Sharma et al., 2020]).

SMILES: OC(Cn1cncn1)(Cn1cncn1)c1ccc(F)cc1F [Fluconazole]
- MIC: 20 mg/L (≈ 65.3 µM)
